Reference: PubChem BioAssay AID652272 (Drosophila RNAi Screening Center, 2013)
Assay: 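Finding fly genes that regulate Hedgehog signal transduction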 (primary screen). Cell system: Drosophila clone 8 (Cl8) cells. Knock-down reagent: long dsRNA against Drosophila genes. Measured: 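Plate reader light from a firefly reporter under a ptc promoter fragment that responds to Hedgehog, with Renilla light as transfection reference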. Direction: firefly Hh reporter signal: higher = more ptc reporter light; Renilla reference signal: higher = more Renilla control light. Rule for the call: 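Called a hit if the two-replicate mean z-score lies below -2 or above +3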. Meaning of the calls: active = hit: reporter lowered or raised; inactive = not a hit.
In all, the deposit lists about 21,000 reagents; this is a random part of those with a known target gene and a result. In the full data, 503 (2.4%) are marked active. 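Raw plate light values, not normalised; calls rest on replicate z-scores that were not deposited; hits include reporter decreases as well as increases.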 The numbers tell different reagents against one gene apart. Names joined by + are all predicted targets of the reagent. The record does not give: the amount of reagent, the time to read-out.

predicted target	dsRNA no.	firefly Hh reporter signal, replicate 1	firefly Hh reporter signal, replicate 2	firefly Hh reporter signal, replicate 3	Renilla reference signal, replicate 1	Renilla reference signal, replicate 2	Outcome
Cyp4p1	1	93620	82049		2016	7220	inactive
CG14861	1	60708	90263		1670	2513	inactive
Tim13	1	57192	59686	69509	6688	5540	inactive
CG3927	1	1.25e5	87296		2464	8544	inactive
CG30379	1	89928	1.81e5		8411	8432	inactive
CG14625	1	61938	1.42e5		1794	5493	inactive
CG11227	1	1.02e5	1.83e5		4004	8213	inactive
CG31064	1	89933	1.19e5		3040	3763	inactive
CG31064	2	86281	96528		2864	2582	inactive
CG31064	3	66678	94000		2153	2395	inactive
CG31064	4	60008	64284		2321	2166	inactive
Chchd3	1	49877	68858		2092	2672	inactive
CG7600	1	1.25e5	71642		6513	4285	inactive
CG30065	1	1.42e5	2.04e5		3800	8557	inactive
nyo	1	1.01e5	3.33e5		1677	10093	inactive
nyo	2	72794	1.50e5		1925	5354	inactive
GstT4	1	80405	1.02e5		2327	2149	inactive
Ir56a	1	1.29e5	1.89e5		4118	8097	inactive
CG31760	1	1.01e5	43362		2456	3253	inactive
CG10026	1	1.06e5	69845		2740	6086	inactive
CG4570	1	38813	68249		1068	2185	inactive
CG2006	1	1.49e5	98715		3771	2832	inactive
CG10841	1	2.26e5	88529		8247	1080	inactive
lbl	1	6.80e5	1.67e5		35479	3418	inactive
CG31949	1	5.16e5	2.60e5		30065	9969	inactive
CG14605	1	58425	81972		2307	2298	inactive
CG7071 + Muted	1	5.13e5	1.93e5		23600	4836	inactive
CG11085	1	1.35e5	3.69e5		4049	12501	inactive
ssp3	1	63842	61641		1621	4684	inactive
ssp3	2	87036	37672		2070	3915	inactive
mgl	1	93688	3.61e5		2684	12272	inactive
mgl	2	67724	53440		2097	1367	inactive
mgl	3	1.03e5	3.80e5		3593	13209	inactive
mgl	4	94935	2.62e5		2757	9751	inactive
Gp93	1	96809	87059		1888	2805	inactive
SCCRO	1	88472			2887	3457	inactive
Svil	1	83744	1.66e5		3046	8139	inactive
Svil	2	59190	38120		4096	2418	active
Svil	3	1.05e5	41837		3009	2934	inactive
Svil	4	37224	9901		1224	800	inactive
Svil	5	73387	62722		2332	3882	inactive

Only “Renilla reference signal, replicate 2” (5 entries from above):
CG3927 = 8544
CG30379 = 8432
CG14625 = 5493
CG11227 = 8213
CG31064 #1 = 3763

The results go on:
predicted target	dsRNA no.	firefly Hh reporter signal, replicate 1	firefly Hh reporter signal, replicate 2	firefly Hh reporter signal, replicate 3	Renilla reference signal, replicate 1	Renilla reference signal, replicate 2	Outcome
CG11269	1	93338	62517		2449	5718	inactive
ND-MLRQ	1	3.06e5			5568		inactive
yellow-e2	1	1.13e5	89168		3858	1706	inactive
Ppox	1	5.37e5	88000		26806	2722	inactive
Prp5	1	1.41e5	2.63e5		5078	12806	inactive
Sdhaf3	1	89821	74963		3218	1472	inactive
Cp7Fc	1	85193	2.08e5		3459	8215	inactive
msn	1	96304	1.50e5		2615	5897	inactive
msn	2	81969	43908		2579	3152	inactive
H	1	5.53e5	67415		31668	2025	inactive
SkpA	1	1.57e5	1.27e5		2360	2617	inactive
mthl8	1	91872	71992		3880	2832	inactive
mthl8	2	99120	49267		3088	4058	inactive
Cyp6a17	1	1.39e5	81510		5545	2266	inactive
CG3081	1	62808	1.35e5		2245	5236	inactive
CG8679	1	86288	79578		2307	6336	inactive
Cam	1	1.32e5	68684		3592	5915	inactive
Cam	2	1.02e5	48321		2877	3901	inactive
CG1246	1	64023	71380		2208	5106	inactive
snf	1	1.01e5	64741		2865	2173	inactive
csul	1	68217	42615		1078	2985	inactive
CG12084	1	1.49e5	1.26e5		7665	4819	inactive
CG34454	1	1.36e5	2.59e5		3867	10664	inactive
Fmr1	1	86624	81513		2445	2248	inactive
Gr22e	1	5.00e5	2.55e5		22464	5882	inactive
scf	1	52502	29459		1907	2024	inactive
Pld3	1	54016	63891		2659	2204	inactive
CG14357	1	70995	85344		1258	1456	inactive
CG30095	1	74779	39725		2081	3253	inactive
PGRP-SB2	1	1.50e5			1911	3926	inactive
UQCR-Q	1	1.10e5			4754	2779	inactive
Galk	1	99347	70235		4471	3024	inactive
